Measured values reported in PMC11558545, “Mechanistic Insights into the Function of 14-3-3 Proteins as Negative Regulators of Brassinosteroid Signaling in Arabidopsis” (Plant and Cell Physiology, 2024).
These are yes or no findings as the source states them, for the method shown.

B1: BRI1^814−1196 cytoplasmic domain, after incubation with the BAK1^250−615 cytoplasmic domain, O22476 814-1196 (domain or fragment)
chain: GREMRKRRRKKEAELEMYAEGHGNSGDRTANNTNWKLTGVKEALSINLAAFEKPLRKLTFADLLQATNGFHNDSLIGSGGFGDVYKAILKDGSAVAIKKLIHVSGQGDREFMAEMETIGKIKHRNLVPLLGYCKVGDERLLVYEFMKYGSLEDVLHDPKKAGVKLNWSTRRKIAIGSARGLAFLHHNCSPHIIHRDMKSSNVLLDENLEARVSDFGMARLMSAMDTHLSVSTLAGTPGYVPPEYYQSFRCSTKGDVYSYGVVLLELLTGKRPTDSPDFGDNNLVGWVKQHAKLRISDVFDPELMKEDPALEIELLQHLKVAVACLDDRAWRRPTMVQVMAMFKEIQAGSGIDSQSTIRSIEDGGFSTIEMVDMSIKEVPEGKL
modifications: here or on the partner: auto- and transphosphorylated by incubation with BAK1^250−615; sites not given
B2: BIN2 (residues 7–380) expressed in Escherichia coli (enzyme, UniProt Q39011 7-380)
chain: MPAAVVDGHDQVTGHIISTTIGGKNGEPKQTISYMAERVVGTGSFGIVFQAKCLETGETVAIKKVLQDRRYKNRELQLMRVMDHPNVVCLKHCFFSTTSKDELFLNLVMEYVPESLYRVLKHYSSANQRMPLVYVKLYMYQIFRGLAYIHNVAGVCHRDLKPQNLLVDPLTHQVKICDFGSAKQLVKGEANISYICSRFYRAPELIFGATEYTTSIDIWSAGCVLAELLLGQPLFPGENAVDQLVEIIKVLGTPTREEIRCMNPHYTDFRFPQIKAHPWHKIFHKRMPPEAIDFASRLLQYSPSLRCTALEACAHPFFDELREPNARLPNGRPFPPLFNFKQEVAGSSPELVNKLIPDHIKRQLGLSFLNQSGT
B3: BIN2 (residues 7–380) expressed in insect cells (enzyme, UniProt Q39011 7-380)
chain: B2 chain

How the values were obtained:
[1] = biological target: T1, Arabidopsis 14-3-3 isoform kappa (At14-3-3-κ^1−248) (Arabidopsis thaliana), P48348; experiment: ITC; 14-3-3κ versus purified globular domains of BR signaling components (BRI1, BAK1 and BSK1 after auto-/transphosphorylation); Nano ITC, 25°C, 25 mM Hepes pH 7.0, 50 mM KCl; both purified; conditions: remark: other sources report otherwise
T1 chain: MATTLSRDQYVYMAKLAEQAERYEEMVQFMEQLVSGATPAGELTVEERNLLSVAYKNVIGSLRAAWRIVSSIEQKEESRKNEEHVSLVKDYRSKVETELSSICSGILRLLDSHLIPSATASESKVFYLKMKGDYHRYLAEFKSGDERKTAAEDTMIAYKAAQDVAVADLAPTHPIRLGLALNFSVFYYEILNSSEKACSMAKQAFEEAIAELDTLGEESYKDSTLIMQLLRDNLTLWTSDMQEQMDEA

[2] = biological target: T2, Arabidopsis 14-3-3 isoform kappa (At14-3-3-κ^1−248) (Arabidopsis thaliana) (UniProt P48348); experiment: condition: 600 μM peptide injected into 50 μM 14-3-3; ITC; Nano ITC, 25°C, 25 mM Hepes pH 7.0, 50 mM KCl; 600 μM peptide or phosphopeptide injected into 50 μM 14-3-3 protein in the cell, 25 injections; both purified
T2 sequence: T1 chain

[3] = biological target: T3, 14-3-3 λ^R136L/Y137F (Arabidopsis thaliana) (UniProt P48349); experiment: as above
T3 sequence: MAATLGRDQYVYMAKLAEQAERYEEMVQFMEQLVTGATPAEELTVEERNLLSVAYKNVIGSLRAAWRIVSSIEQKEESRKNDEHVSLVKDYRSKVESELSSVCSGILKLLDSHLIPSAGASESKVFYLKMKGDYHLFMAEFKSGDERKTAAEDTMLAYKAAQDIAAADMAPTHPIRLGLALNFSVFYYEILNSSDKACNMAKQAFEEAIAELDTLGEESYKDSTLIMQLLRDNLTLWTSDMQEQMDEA

[4] = biological target: T2, Arabidopsis 14-3-3 isoform kappa (At14-3-3-κ^1−248) (Arabidopsis thaliana); experiment: ITC; 14-3-3κ versus purified globular domains of BR signaling components (BRI1, BAK1 and BSK1 after auto-/transphosphorylation); Nano ITC, 25°C, 25 mM Hepes pH 7.0, 50 mM KCl; both purified

| Binder | binding [2] | binding [3] | further results |
| --- | --- | --- | --- |
| B1 |  |  | binding [1]: no binding |
| RGELFSAPASMRTSPTNSGH [BKI1^265−284 peptide] | no binding |  |  |
| RGELFSAP (phosphoserine at Ser270 (RGELFpSAP)) [pBKI1^265−272 peptide] |  | no binding |  |
| RISNSAP (phosphoserine at Ser173 (RISNpSAP)) [pBZR1^169−175 peptide] |  | no binding |  |
| RKLTFA (phosphothreonine at Thr872 (RKLpTFA)) [pBRI1^869−874 peptide] |  | no binding |  |
| B2 |  |  | binding [4]: no binding |
| B3 |  |  | binding [4]: no binding |
| KEALSIN [BRI1^851−860 peptide] | no binding |  |  |
| KEALSIN (phosphoserine at Ser858 (KEALpSIN)) [pBRI1^851−860 peptide] | no binding |  |  |
